Patent US20230257479A1
These are yes or no findings as the source states them, for the method shown.

By UniProt entry, the sequences of proteins in these tests, tags left out. Where a name states a change or a piece, a line headed by the entry shows the natural chain unless it says otherwise.
UniProt Q13641: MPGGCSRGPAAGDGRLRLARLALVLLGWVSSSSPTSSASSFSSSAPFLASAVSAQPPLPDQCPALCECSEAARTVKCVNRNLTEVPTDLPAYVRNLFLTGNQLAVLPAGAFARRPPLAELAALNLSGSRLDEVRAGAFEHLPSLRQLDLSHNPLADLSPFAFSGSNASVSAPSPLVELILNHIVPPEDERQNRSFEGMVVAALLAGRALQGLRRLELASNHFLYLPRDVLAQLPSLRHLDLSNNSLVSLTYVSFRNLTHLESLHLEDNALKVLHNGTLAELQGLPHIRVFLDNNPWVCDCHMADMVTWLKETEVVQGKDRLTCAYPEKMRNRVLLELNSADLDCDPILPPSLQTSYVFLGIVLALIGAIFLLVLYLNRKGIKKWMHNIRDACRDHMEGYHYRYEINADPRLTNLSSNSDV
UniProt Q4R8Y9: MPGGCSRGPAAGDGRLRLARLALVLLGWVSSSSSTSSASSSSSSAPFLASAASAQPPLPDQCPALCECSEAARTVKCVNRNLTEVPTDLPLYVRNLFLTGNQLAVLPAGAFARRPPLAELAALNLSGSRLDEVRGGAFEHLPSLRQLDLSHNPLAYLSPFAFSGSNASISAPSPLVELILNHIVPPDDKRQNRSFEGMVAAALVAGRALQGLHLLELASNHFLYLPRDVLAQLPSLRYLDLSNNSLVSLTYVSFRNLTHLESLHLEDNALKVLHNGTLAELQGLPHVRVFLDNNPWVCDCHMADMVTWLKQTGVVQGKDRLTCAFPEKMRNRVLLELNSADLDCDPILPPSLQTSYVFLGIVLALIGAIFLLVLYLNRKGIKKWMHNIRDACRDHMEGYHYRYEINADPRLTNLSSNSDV

What was measured:
[1] = biological target: T1, full length chicken 5T4 (SEQ ID NO: 3) on transfected HEK-293 cells (chicken); experiment: flow cytometry, transfected HEK-293 cells
T1 sequence: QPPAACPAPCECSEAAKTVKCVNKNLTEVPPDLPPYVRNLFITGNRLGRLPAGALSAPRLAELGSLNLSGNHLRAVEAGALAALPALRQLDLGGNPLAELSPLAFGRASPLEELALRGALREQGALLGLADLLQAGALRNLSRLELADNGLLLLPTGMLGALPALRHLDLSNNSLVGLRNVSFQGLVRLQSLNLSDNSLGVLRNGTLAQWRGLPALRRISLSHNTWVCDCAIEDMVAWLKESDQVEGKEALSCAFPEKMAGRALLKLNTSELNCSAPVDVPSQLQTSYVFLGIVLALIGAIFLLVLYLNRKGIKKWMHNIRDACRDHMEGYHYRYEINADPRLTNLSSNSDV

[2] = biological target: full length human 5T4 (SEQ ID NO: 1) on cells (human) (UniProt Q13641); experiment: flow cytometry, transfected HEK-293 cells
[3] = biological target: full length cynomolgus monkey 5T4 on transfected HEK-293 cells (cynomolgus monkey) (UniProt Q4R8Y9); experiment: flow cytometry, transfected HEK-293 cells
[4] = biological target: full length human 5T4 (SEQ ID NO: 1) on cells (human) (UniProt Q13641); experiment: flow cytometry, transfected HEK-293 cells; remark: listed apart in the source
[5] = biological target: full length human 5T4 (SEQ ID NO: 1) on cells (human) (UniProt Q13641); experiment: flow cytometry, HeLa and MDA-MB-231 cells
[6] = biological target: full length human 5T4 (SEQ ID NO: 1) on cells (human) (UniProt Q13641); experiment: flow cytometry, HeLa cells, FITC secondary [I)A]
[7] = biological target: full length human 5T4 (SEQ ID NO: 1) on cells (human) (UniProt Q13641); experiment: flow cytometry, HeLa cells, FITC secondary [I)B]
[8] = biological target: full length human 5T4 (SEQ ID NO: 1) on cells (human) (UniProt Q13641); experiment: flow cytometry, HeLa cells, FITC secondary [I)C]
[9] = biological target: full length human 5T4 (SEQ ID NO: 1) on cells (human) (UniProt Q13641); experiment: flow cytometry, MDA-MB-231 cells, FITC secondary [I)A]
[10] = biological target: full length human 5T4 (SEQ ID NO: 1) on cells (human) (UniProt Q13641); experiment: flow cytometry, MDA-MB-231 cells, FITC secondary [I)B]
[11] = biological target: full length human 5T4 (SEQ ID NO: 1) on cells (human) (UniProt Q13641); experiment: flow cytometry, MDA-MB-231 cells, FITC secondary [I)C]
[12] = biological target: full length human 5T4 (SEQ ID NO: 1) on cells (human) (UniProt Q13641); experiment: flow cytometry, HEK-293 cells transfected with human 5T4, PE secondary
[13] = biological target: T1, full length chicken 5T4 (SEQ ID NO: 3) on transfected HEK-293 cells (chicken); experiment: flow cytometry, HEK-293 cells transfected with chicken 5T4, PE secondary
[14] = biological target: full length human 5T4 (SEQ ID NO: 1) on cells (human) (UniProt Q13641); experiment: flow cytometry, HEK-293 cells transfected with human 5T4, FITC secondary [I)A]
[15] = biological target: full length human 5T4 (SEQ ID NO: 1) on cells (human) (UniProt Q13641); experiment: flow cytometry, HEK-293 cells transfected with human 5T4, FITC secondary [I)B]
[16] = biological target: full length human 5T4 (SEQ ID NO: 1) on cells (human) (UniProt Q13641); experiment: flow cytometry, HEK-293 cells transfected with human 5T4, FITC secondary [I)C]
[17] = biological target: full length human 5T4 (SEQ ID NO: 1) on cells (human) (UniProt Q13641); experiment: flow cytometry, HEK-293 cells transfected with human 5T4, FITC secondary [I)D]
[18] = biological target: full length cynomolgus monkey 5T4 on transfected HEK-293 cells (cynomolgus monkey) (UniProt Q4R8Y9); experiment: flow cytometry, HEK-293 cells transfected with cynomolgus monkey 5T4, FITC secondary [I)A]
[19] = biological target: full length cynomolgus monkey 5T4 on transfected HEK-293 cells (cynomolgus monkey) (UniProt Q4R8Y9); experiment: flow cytometry, HEK-293 cells transfected with cynomolgus monkey 5T4, FITC secondary [I)B]
[20] = biological target: full length cynomolgus monkey 5T4 on transfected HEK-293 cells (cynomolgus monkey) (UniProt Q4R8Y9); experiment: flow cytometry, HEK-293 cells transfected with cynomolgus monkey 5T4, FITC secondary [I)C]
[21] = biological target: full length cynomolgus monkey 5T4 on transfected HEK-293 cells (cynomolgus monkey) (UniProt Q4R8Y9); experiment: flow cytometry, HEK-293 cells transfected with cynomolgus monkey 5T4, FITC secondary [I)D]

binding [1]: no binding (tested: 10 µg/mL) | binding [2]: no binding (tested: 10 µg/mL) | binding [3]: no binding (tested: 3 µg/mL) | binding [4]: no binding (tested: 3 µg/mL) | binding [5]: no binding (tested: 3 µg/mL) | binding [6]: no binding (tested: 3 µg/ml) | binding [7]: no binding (tested: 3 µg/ml) | binding [8]: no binding (tested: 3 µg/ml) | binding [9]: no binding (tested: 3 µg/ml) | binding [10]: no binding (tested: 3 µg/ml) | binding [11]: no binding (tested: 3 µg/ml) | binding [12]: no binding (tested: 10 µg/ml) | binding [13]: no binding (tested: 10 µg/ml) | binding [14]: no binding (tested: 3 µg/ml) | binding [15]: no binding (tested: 3 µg/ml) | binding [16]: no binding (tested: 3 µg/ml) | binding [17]: no binding (tested: 3 µg/ml) | binding [18]: no binding (tested: 3 µg/ml) | binding [19]: no binding (tested: 3 µg/ml) | binding [20]: no binding (tested: 3 µg/ml) | binding [21]: no binding (tested: 3 µg/ml)
B1: IgG1-b12-K409R (antibody, V domains shown)
VH: QVQLVQSGAEVKKPGASVKVSCQASGYRFSNFVIHWVRQAPGQRFEWMGWINPYNGNKEFSAKFQDRVTFTADTSANTAYMELRSLRSADTAVYYCARVGPYSWDDSPQDNYYMDVWGKGTTVIVSS
VL: EIVLTQSPGTLSLSPGERATFSCRSSHSIRSRRVAWYQHKPGQAPRLVIHGVSNRASGISDRFSGSGSGTDFTLTITRVEPEDFALYYCQVYGASSYTFGQGTKLERK
